In assay [1] the test system is K562. Put plainly: MTT cytotoxicity assay in K562 cells. The note with it: Homo sapiens. The class given is cell-based. For orientation: Formazan colour is commonly taken as a measure of viable cells.
Assay [2] concerns HL60. Put plainly: MTT cytotoxicity assay in HL-60 cells. It is filed as cell-based. The note with it: Homo sapiens.

The structures appear in SMILES notation. Where two headings read alike, the source gives them in different places.

For the compound `Cc1ccc(NC(=O)c2ccc(CN3CCN(C)CC3)cc2)cc1Nc1nccc(-c2cccnc2)n1` [Imatinib, reference compound], the IC50 in assay [1] (K562, 48 h, Table 3, MTT, 48 h, 10 point dose response, read-out: IC 50 K562) was 5.16 µM; in assay [1] (K562, Table 2) it was 7.53 µM; in assay [2] (HL-60, 48 h, Table 3, MTT, 48 h, 10 point dose response, read-out: IC 50 HL 60), 9.63 µM; in assay [2] (HL-60, Table 2), 9.63 µM.
